Data: PMC4720616, “Influence of tumour size on the efficacy of targeted alpha therapy with ^213Bi-[DOTA^0,Tyr^3]-octreotate” (EJNMMI Research, 2016)

Assays:
H69 tumour-bearing mice = assay: Dosimetry: absorbed radiation dose in organs and tumour, H69 tumour-bearing mice; type: in vivo, BALB/c (nu/nu) nude mice; conditions: for Tumour dose (Gy): therapy, three injections, estimated from tumour size at T = 0 and injected activity, ± SD
[1] = test system: CA20948 tumour-bearing mice; assay: Dosimetry: absorbed radiation dose in organs and tumour, CA20948 tumour-bearing mice; type: in vivo, BALB/c (nu/nu) nude mice; conditions: for Tumour dose (Gy): therapy, three injections, estimated from tumour size at T = 0 and injected activity, ± SD
[2] = H69 tumour-bearing mice, from biodistribution data
[3] = CA20948 tumour-bearing mice, from biodistribution data

## C[C@@H](O)[C@H](NC(=O)[C@@H]1CSSC[C@H](NC(=O)[C@@H](Cc2ccccc2)NC(=O)CN2CCN(CC(=O)O)CCN(CC(=O)O)CCN(CC(=O)O)CC2)C(=O)N[C@@H](Cc2ccc(O)cc2)C(=O)N[C@H](Cc2c[nH]c3ccccc23)C(=O)N[C@@H](CCCCN)C(=O)N[C@@H]([C@@H](C)O)C(=O)N1)C(=O)O [^213Bi-DOTATATE, ^213Bi-[DOTA^0, Tyr^3]-octreotate, metal not drawn]
H69 tumour-bearing mice; H69 large tumours
  Tumour dose (Gy): 2.0 ± 0.6 Gy
H69 tumour-bearing mice; H69 small tumours
  Tumour dose (Gy): 5 ± 1 Gy
H69 tumour-bearing mice; [2]
  Absorbed dose, bone marrow: < 0.02 Gy/MBq
  Absorbed radiation dose, liver: 0.06 Gy/MBq
  Absorbed radiation dose, pancreas: 0.15 Gy/MBq
  Absorbed radiation dose, spleen: 0.06 Gy/MBq
H69 tumour-bearing mice; H69 tumour-bearing mice, per MBq injected, calculated for 100 mg tumour, from biodistribution at 10, 30, 60 and 120 min p.i.
  Tumour-absorbed radiation dose: 0.45 Gy/MBq
H69 tumour-bearing mice; H69 tumour-bearing mice, per MBq injected, from biodistribution data
  Renal-absorbed dose: 2 Gy/MBq
[1]; CA20948 large tumours
  Tumour dose (Gy): 10 ± 5 Gy
[1]; CA20948 small tumours
  Tumour dose (Gy): 17 ± 1 Gy
[1]; CA20948 tumour-bearing mice, from biodistribution at 10, 30, 60 and 120 min p.i.
  Tumour-absorbed radiation dose: 0.78 Gy/MBq
[1]; [3]
  Absorbed dose, bone marrow: < 0.02 Gy/MBq
  Absorbed radiation dose, kidneys: 1.6 Gy/MBq
  Absorbed radiation dose, liver: 0.06 Gy/MBq
  Absorbed radiation dose, pancreas: 0.13 Gy/MBq
  Absorbed radiation dose, spleen: 0.05 Gy/MBq
